Assay results reported in paper PMC11768359, “2-Aminothiophene Derivatives—New Drug Candidates Against Leishmaniasis: Drug Design, Synthesis, Pharmacomodulation, and Antileishmanial Activity” (Pharmaceuticals, 2025).
“And” between values parts separate entries of the source, which are not always exact repeats. Identical values can stand only once.

Tested on: promastigotes of L. amazonensis
Experiment: Growth inhibition of promastigote forms of L. amazonensis (MTT)
Assay type: cell-based, Leishmania amazonensis
Conditions: SI = CC50/IC50 (macrophages / promastigotes)
Method: The in vitro tests utilized Leishmania amazonensis parasites (IFLA/BR/67/PH8). These leishmania cell lines were obtained from Oswaldo Cruz Foundation (FIOCRUZ)/Brazil. The promastigote forms were cultivated in Schneider’s insect medium at 26 °C in a biological oxygen demand (BOD) incubator. Schneider’s insect medium was supplemented with 20% fetal bovine serum (FBS) and 1% penicillin (100 U/mL) and streptomycin (µg/mL) (complete Schneider). Next, we differentiated them from promastigote forms by changing the conditions to Schneider’s insect medium supplemented with 5% FBS, pH 4.6, and a temperature of 32 °C to obtain axenic amastigote forms of L. amazonensis. Meanwhile, RAW 264.7 macrophages were cultured in […] cell culture flasks using DMEM medium supplemented with 10% FBS, 1% penicillin 100 U/mL, and 100 μg/mL streptomycin (complete DMEM) and incubated at 37 °C and 5% CO2.
Parasite growth inhibition was evaluated using the methodology described by Rodrigues et al. (2015). Cultures of logarithmically growing promastigote and axenic amastigote forms (1 × 10^6 parasites/mL) were incubated in 96-well plates containing 100 µL of supplemented Schneider’s medium in triplicate. Serial concentrations of 2-amino-thiophene and 2-amino-selenophene derivatives (10.00–0.156 μM) and the reference drugs meglumine antimoniate (500–40,000 μg/mL), amphoterecinB (0.1–2 μM), and pentamidine (3.12–100 µM) were added. BNP was used as a negative control. The cultures were incubated in a biological oxygen demand oven (model Eletrolab EL202, São Paulo, Brazil) at 26 °C for promastigotes and 32 °C for axenic amastigotes for 72 h. Then, 10 μL of MTT (5 mg/mL) was added to each well to colorimetrically evaluate growth inhibition. The plate was subsequently incubated for a further 4 h, followed by adding 50 μL of 10% sodium dodecyl sulfate solution for […] before the optical density of the culture was read on a microplate spectrophotometer reader. The reading was taken at the test and reference wavelengths of 540 and 620 nm using a microplate spectrophotometer. The negative control consisted of 0.2% […] with BNP, considered to be 100% viable.

Compared with `N#Cc1ccc2[nH]cc(/C=N/c3[se]c4c(c3C#N)CCCC4)c2c1` [Compound 33], `Cc1cccc2c(/C=N/c3[se]c4c(c3C#N)CCCC4)c[nH]c12` [Compound 36] is higher in SI: 21.83 for the first, 63.66 for the second.

First: N#Cc1c(/N=C/c2c[nH]c3cccc([N+](=O)[O-])c23)[se]c2c1CCCC2 [Compound 34]
Second: N#Cc1c(/N=C/c2c[nH]c3cccc(Br)c23)[se]c2c1CCCC2 [Compound 37]
The SI of the first is higher: 88.49 for the first, 53.71 for the second.

First: COc1cccc2[nH]cc(/C=N/c3[se]c4c(c3C#N)CCCC4)c12 [Compound 39]
Second: N=C(N)c1ccc(OCCCCCOc2ccc(C(=N)N)cc2)cc1 [Pentamidine, reference compound]
The SI of the first is higher: 83.00 for the first, 6.90 for the second.

With `N#Cc1c(/N=C/c2c[nH]c3ccc(Br)cc23)[se]c2c1CCCC2` [Compound 38] the SI was 68 and 68.45.

Same assay, conditions: SI = CC50/IC50 (macrophages / promastigotes); listed as pentamidine

`N=C(N)c1ccc(OCCCCCOc2ccc(C(=N)N)cc2)cc1` [Pentamidine, reference compound] gave an SI of 6.9.
